Reference: PMC7319344
These are yes or no findings as the source states them, for the method shown. In cells and extracts the contact can be indirect. Some entries that bind do so weakly or less than the wild type. Sequences can lack the tags named with a protein.

Target: T1, Grx3-FLAG (C. albicans) (UniProt Q5AF81)
T1 sequence: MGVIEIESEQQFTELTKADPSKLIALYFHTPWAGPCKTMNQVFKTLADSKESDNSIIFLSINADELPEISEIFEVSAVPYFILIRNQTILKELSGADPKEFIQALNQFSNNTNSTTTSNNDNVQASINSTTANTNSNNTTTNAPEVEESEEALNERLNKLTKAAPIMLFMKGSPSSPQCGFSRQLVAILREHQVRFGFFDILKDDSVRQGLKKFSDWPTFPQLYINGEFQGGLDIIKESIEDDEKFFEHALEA
Assay: co-IP; lysates of cells grown in YPM with or without 500 uM BPS for 6hr; Grx3-FLAG precipitated with anti-FLAG M2 affinity gel at 4°C for 2hr, washed five times with lysis buffer, western blot for MYC

B1: Sfu1-Myc (MAL2-driven Sfu1-13xMYC) (protein, UniProt Q5AP95 1-517)
chain: MPTSPTESIPNSSTKEQPILPKMLPTAKSPHTTPAQSPQNSDHHHHHQQTPPQPTDGQQCSNCGTTKTPLWRRAPDGTLICNACGLYYRSNNTHRPVNLKRPPNTIAVVKEEEGSCKGDGRCNGTGGSAACKGCPAYNNRIVAKKALEKSPKNDSSRAPIDKSLKRSTSTDATTEDESSLAIACFNCGTTITPLWRRDDAGNTICNACGLFYRLHGSHRPIKMKRPTIKRRKRNVSDKKSKDEVQMHSSDQSPIVASDPISPTPHNNENNNNVTNITTTTKTPTRSPHYYQPPPQYPYQHHPINSTTSSAINRLPPISYQSPYQTAPLSHSPMQSSSSYSPGASSVIPSSYYPPYSGSGRIPNGPGPVPGPPPPPPPTQSQPHHQQITTSPTSQSYGSLRAPIHITKRGYTPENIRLPSIQLTSSTSSNSETKLPPITNHSEKCCSNCAGPKSLAPMAIDFTASYRFNNIDSQTKLTKEDQNDSEGVSRDNDTRDENKPIKQEEHRSALSIGKLLNG
binding: binds
